The values below come from paper PMC8911475, “Insight into the Phylogeny and Binding Ability of WRKY Transcription Factors”.

This series concerns the target T1, WRKY54 DBD (Arabidopsis thaliana) (UniProt Q93WU8).
T1 sequence (looked up): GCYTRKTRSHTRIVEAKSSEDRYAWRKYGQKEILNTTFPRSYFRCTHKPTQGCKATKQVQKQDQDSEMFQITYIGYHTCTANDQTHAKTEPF
In words: EMSA. Particulars: QCM: 30 mM HEPES pH 7.5, 0.5 M NaCl, 2 mM TCEP, 25 °C, biotin-dsDNA on avidin; fEMSA: 30 min incubation in the dark, native PAGE 4 °C 120 V 90 min, buffer not stated; recombinant protein; residues 133-224; protein details: N-term MBP + thrombin site, C-term 12xHis; label: 5' fluorescein (fEMSA), 5' biotin (QCM). On the technique in general: Mobility shift assays separate free from complexed probe on a gel.

A weaker result is weaker than the reference pair of the same experiment. Where a protein sequence is shown, tags need not be part of it.

Turning to ATTTGTTGACTA (double strand) [T12], the binding result is on record as “binds more weakly”.
